Experimental data as given in publication PMC9417995.
These are yes or no findings as the source states them, for the method shown. For some assays here: In cells and extracts the contact can be indirect. Some binding calls cover weakened binding; strength is not graded here. For some assays here: Tags and fused reporters may be left off the sequences shown.

Protein sequences, listed by entry. Tags and fused reporters are not part of them.
UniProt Q9HAU4: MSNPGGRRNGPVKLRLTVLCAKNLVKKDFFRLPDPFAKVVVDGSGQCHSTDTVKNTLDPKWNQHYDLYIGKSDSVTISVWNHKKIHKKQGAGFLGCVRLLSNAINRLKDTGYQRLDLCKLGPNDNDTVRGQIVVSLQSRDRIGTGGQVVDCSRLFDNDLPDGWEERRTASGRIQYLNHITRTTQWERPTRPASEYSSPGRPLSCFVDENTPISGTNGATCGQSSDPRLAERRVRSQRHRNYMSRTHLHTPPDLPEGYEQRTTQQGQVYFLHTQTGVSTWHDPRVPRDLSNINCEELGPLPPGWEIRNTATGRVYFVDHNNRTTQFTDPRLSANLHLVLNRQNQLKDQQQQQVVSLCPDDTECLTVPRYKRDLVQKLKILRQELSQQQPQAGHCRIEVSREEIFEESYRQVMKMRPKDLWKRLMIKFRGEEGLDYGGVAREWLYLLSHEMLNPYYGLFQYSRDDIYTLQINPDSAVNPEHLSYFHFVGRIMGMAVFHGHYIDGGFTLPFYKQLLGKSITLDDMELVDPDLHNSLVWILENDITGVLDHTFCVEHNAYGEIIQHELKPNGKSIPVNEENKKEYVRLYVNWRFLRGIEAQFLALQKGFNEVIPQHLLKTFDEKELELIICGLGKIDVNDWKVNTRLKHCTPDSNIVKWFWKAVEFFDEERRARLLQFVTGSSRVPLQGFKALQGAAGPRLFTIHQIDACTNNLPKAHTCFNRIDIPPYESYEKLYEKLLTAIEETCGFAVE

B1: GST-TRAF4 protein, purified (protein, UniProt Q9BUZ4 1-470)
chain: MPGFDYKFLEKPKRRLLCPLCGKPMREPVQVSTCGHRFCDTCLQEFLSEGVFKCPEDQLPLDYAKIYPDPELEVQVLGLPIRCIHSEEGCRWSGPLRHLQGHLNTCSFNVIPCPNRCPMKLSRRDLPAHLQHDCPKRRLKCEFCGCDFSGEAYESHEGMCPQESVYCENKCGARMMRRLLAQHATSECPKRTQPCTYCTKEFVFDTIQSHQYQCPRLPVACPNQCGVGTVAREDLPGHLKDSCNTALVLCPFKDSGCKHRCPKLAMARHVEESVKPHLAMMCALVSRQRQELQELRRELEELSVGSDGVLIWKIGSYGRRLQEAKAKPNLECFSPAFYTHKYGYKLQVSAFLNGNGSGEGTHLSLYIRVLPGAFDNLLEWPFARRVTFSLLDQSDPGLAKPQHVTETFHPDPNWKNFQKPGTWRGSLDESSLGFGYPKFISHQDIRKRNYVRDDAVFIRAAVELPRKILS
B2: TRAF4 in transfected cells (protein, UniProt Q9BUZ4 1-470)
chain: B1 chain
B3: TNF receptor-associated factor 4 (TRAF4), endogenous (protein, UniProt Q9BUZ4 1-470)
chain: B1 chain

What was measured:
[1] = target: HER2 in transiently transfected cells (human) (UniProt P04626); assay: co-IP; transiently transfected HCC1954 cells and HEK293T cells
[2] = target: HA-HER2-full length (human) (UniProt P04626); assay: co-IP; HA-HER2 full length or truncates transfected into HEK293T cells
[3] = target: MYC-HER2 protein, purified (human) (UniProt P04626); assay: pull-down; in vitro binding of purified GST-TRAF4, FLAG-SMURF2 and MYC-HER2 proteins; both purified
[4] = target: MYC-HER2 protein, purified (human) (UniProt P04626); assay: pull-down; competition: different amounts (0, 1, 2, 3 µg) of pure TRAF4, SMURF2 and HER2 protein combined, HER2 pulled down, immunoblot with TRAF4 or SMURF2 antibodies; both purified
[5] = target: HER2 receptor (HER2/ErbB2), endogenous (human (endogenous in HCC1954)) (UniProt P04626); assay: co-IP; separated membrane and cytoplasmic fractions from HCC1954 and BT474 cells
[6] = target: HER2 receptor (HER2/ErbB2), endogenous (human (endogenous in HCC1954)) (UniProt P04626); assay: co-IP; endogenous proteins, lysates of four HER2-positive breast cancer cell lines (HCC1954 in Fig. 5A)
[7] = target: FLAG-SMURF2 protein, purified (human) (UniProt Q9HAU4); assay: pull-down; in vitro binding of purified GST-TRAF4, FLAG-SMURF2 and MYC-HER2 proteins; both purified
[8] = target: SMURF2 in transfected cells (UniProt Q9HAU4); assay: co-IP; transiently transfected HCC1954 cells and HEK293T cells

| Molecule | binding [1] | binding [2] | binding [3] | binding [4] | binding [5] | binding [6] | further results |
| --- | --- | --- | --- | --- | --- | --- | --- |
| SMURF2 in transfected cells (from UniProt Q9HAU4 1-748) | binds | binds |  |  |  |  |  |
| FLAG-SMURF2 protein, purified (from UniProt Q9HAU4 1-748) |  |  | binds | binds |  |  |  |
| SMAD specific E3 ubiquitin protein ligase protein 2 (SMURF2), endogenous (from UniProt Q9HAU4 1-748) |  |  |  |  | binds | binds |  |
| B1 |  |  | binds | binds |  |  | binding [7]: binds |
| B2 | binds | binds |  |  |  |  | binding [8]: binds |
| B3 |  |  |  |  | binds | binds |  |
